Measurements as given in PMC6888071.
No constants are given. Whether binding was seen depends on the method and setting. In cells and extracts the contact can be indirect. Some binding calls cover weakened binding; strength is not graded here.

Molecular target: Axl receptor tyrosine kinase (human (endogenous in DMPM tumour tissue)) (UniProt P30530)
Assay: co-IP; 1 mg of total protein lysate from frozen DMPM surgical samples for IP, 20 µl of immunoprecipitated protein for WB; endogenous receptors

## epidermal growth factor receptor (from UniProt P00533 25-1210)
  binding: binds
